Literature values, collected in article PMC3720659, “Integrated Analysis of Drug-Induced Gene Expression Profiles Predicts Novel hERG Inhibitors” (PLoS ONE, 2013).

Tested on: hERG current
Conditions: cited from earlier work; call rule not given here

In the case of `Nc1nc2ccc(OC(F)(F)F)cc2s1` [riluzole], the “Annotation (hERG inhibition class, Active/Inactive by IC50)” value is listed as “Inactive”.
For `O=C1OCCN1/N=C/c1ccc([N+](=O)[O-])o1` [furazolidone], the “Annotation (hERG Active / Inactive)” value is given as “Inactive”.
